PubChem BioAssay AID1224826 – NIAID, 2016
In all, the deposit lists about 17,000 reagents; shown is a part drawn at random. Over the whole deposit, about 1,110 (6.6%) are marked active. 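Active means lowered or raised reporter signal; replicate intensities are raw and not normalised per plate.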 Unmarked entries are inactive.

- Assay: 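Knock-downs that raise or lower Tnf reporter signal after endotoxin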 (primary screen)
- Cell system: RAW264.7 G9 macrophages from mouse bearing reporters for p65 (GFP) and the Tnf promoter (mCherry)
- Reagent: siRNA pool against mouse genes, 100 nM
- Time to read-out: 16 h of LPS stimulation, after 2 days of siRNA transfection
- Treatment: bacterial lipopolysaccharide (Salmonella minnesota R595), 10 ng/ml
- Measured: 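Nuclear mCherry signal of the Tnf promoter reporter measured by imaging after background removal, scaled to each plate median and turned into robust z-scores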
- Direction: Tnf reporter robust z-score: higher = stronger Tnf promoter reporter signal after LPS; Tnf reporter intensity: higher = stronger Tnf promoter reporter signal
- Hit rule: 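Called active when robust z-score is at most -1.3, matching the median of the Tlr4 knock-down control, or over 3; control wells and wells with under 50 cells never active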
- Calls: active = Tnf reporter clearly lowered or raised; inactive = no clear change in Tnf reporter

| Gene | Tnf reporter robust z-score | fewer than 50 cells in well | Tnf reporter intensity, replicate 1 | Tnf reporter intensity, replicate 2 |
| --- | --- | --- | --- | --- |
| Tipin (GeneID 66131) | -0.34 | enough cells in well | 118 | 70.8 |
| Ndufb2 (GeneID 68198) | -0.3 | enough cells in well | 208 | 93.3 |
| Taco1 (GeneID 70207) | – | fewer than 50 cells per well; well left out of calls | 274 | 149 |
| Vmn1r214 (GeneID 171248) | -1.06 | enough cells in well | 78.2 | 72.8 |
| Ano7 (GeneID 404545) | 0.71 | enough cells in well | 232 | 158 |
| Aoc3 (GeneID 11754) | -0.86 | enough cells in well | 151 | 129 |
| Cd80 (GeneID 12519) | -1.03 | enough cells in well | 159 | 137 |
| Ido1 (GeneID 15930) | 0.96 | enough cells in well | 225 | 194 |
| Slc25a48 (GeneID 328258) | 4.22 (active) | enough cells in well | 473 | 265 |
| Zfp521 (GeneID 225207) | 1.41 | enough cells in well | 183 | 185 |
| Lrrc4c (GeneID 241568) | 0.97 | enough cells in well | 228 | 261 |
| Or5b112 (GeneID 258689) | 1.43 | enough cells in well | 229 | 205 |
| E2f7 (GeneID 52679) | 1.7 | enough cells in well | 265 | 200 |
| Mlf2 (GeneID 30853) | 0.05 | enough cells in well | 234 | 238 |
| Tdp2 (GeneID 56196) | -1.12 | enough cells in well | 144 | 142 |
| Or5d37 (GeneID 258634) | -0.78 | enough cells in well | 142 | 107 |
| Slc52a2 (GeneID 52710) | -0.16 | enough cells in well | 186 | 309 |
| Hoxc8 (GeneID 15426) | -1.01 | enough cells in well | 153 | 114 |
| Plekhf2 (GeneID 71801) | -0.59 | enough cells in well | 109 | 92.5 |
| D6Ertd160e (GeneID 52223) | 0.2 | enough cells in well | 253 | 160 |
| Ints6 (GeneID 18130) | -0.45 | enough cells in well | 193 | 178 |
| Kcnab2 (GeneID 16498) | -0.63 | enough cells in well | 205 | 107 |
| 6430548M08Rik (GeneID 234797) | 0.33 | enough cells in well | 178 | 181 |
| Scrg1 (GeneID 20284) | – | fewer than 50 cells per well; well left out of calls | 38.9 | 163 |
| Pex1 (GeneID 71382) | 0.19 | enough cells in well | 239 | 251 |
| D030022P06RIK | -0.3 | enough cells in well | 191 | 132 |
| Apol10b (GeneID 328561) | -0.84 | enough cells in well | 137 | 118 |
| Nup93 (GeneID 71805) | -0.83 | enough cells in well | 158 | 90.1 |
| Zfp810 (GeneID 235050) | -0.8 | enough cells in well | 134 | 170 |
| Ncor2 (GeneID 20602) | -0.42 | enough cells in well | 260 | 148 |
| Gp9 (GeneID 54368) | 0.75 | enough cells in well | 296 | 238 |
| Hnrnpf (GeneID 98758) | 0.59 | enough cells in well | 205 | 82.2 |
| Zfp41 (GeneID 22701) | -0.67 | enough cells in well | 166 | 191 |
| Prdm16 (GeneID 70673) | -0.17 | enough cells in well | 236 | 178 |
| Copz2 (GeneID 56358) | 0.04 | enough cells in well | 172 | 195 |
| Exosc3 (GeneID 66362) | -0.64 | enough cells in well | 164 | 126 |
| Cd163 (GeneID 93671) | -1.27 | enough cells in well | 142 | 75.1 |
| Cxcl10 (GeneID 15945) | 0.32 | enough cells in well | 219 | 128 |
| S100a16 (GeneID 67860) | -1.61 (active) | enough cells in well | 68.5 | 48.5 |
| Tmem115 (GeneID 56395) | 2.45 | enough cells in well | 256 | 308 |
| BC004004 (GeneID 80748) | 0.48 | enough cells in well | 249 | 231 |
| 1700001F09Rik (GeneID 71826) | – | fewer than 50 cells per well; well left out of calls | 84.3 | 41.5 |
| Mycs (GeneID 17870) | -0.78 | enough cells in well | 171 | 76.1 |
| Mcm3ap (GeneID 54387) | -0.75 | enough cells in well | 200 | 151 |
| Cstf3 (GeneID 228410) | 0.88 | enough cells in well | 299 | 269 |
| Hic2 (GeneID 58180) | 0.36 | enough cells in well | 252 | 199 |
| Rnf215 (GeneID 71673) | 0.83 | enough cells in well | 285 | 113 |
| Dmac2l (GeneID 68055) | -0.6 | enough cells in well | 236 | 53.7 |
| Slc4a9 (GeneID 240215) | – | fewer than 50 cells per well; well left out of calls | 131 | 75.8 |
| Ablim2 (GeneID 231148) | 0 | enough cells in well | 198 | 196 |
| Zdhhc6 (GeneID 66980) | – | fewer than 50 cells per well; well left out of calls | 81 | 86.4 |
| Ldb3 (GeneID 24131) | 0.02 | enough cells in well | 218 | 115 |
| Fdxr (GeneID 14149) | 0.23 | enough cells in well | 250 | 244 |
| Or4k15 (GeneID 258316) | 2.8 | enough cells in well | 96.1 | 232 |
| Fgfrl1 (GeneID 116701) | -0.19 | enough cells in well | 228 | 231 |
| Mtus1 (GeneID 102103) | 1.48 | enough cells in well | 295 | 184 |
| Gdf9 (GeneID 14566) | 0.24 | enough cells in well | 321 | 215 |
| Pdcd1 (GeneID 18566) | -0.4 | enough cells in well | 203 | 161 |

Already shown: an excerpt of the list.
| Gene | Tnf reporter robust z-score | fewer than 50 cells in well | Tnf reporter intensity, replicate 1 | Tnf reporter intensity, replicate 2 |
| --- | --- | --- | --- | --- |
| Hic2 (GeneID 58180) | 0.36 | enough cells in well | 252 | 199 |
| Rnf215 (GeneID 71673) | 0.83 | enough cells in well | 285 | 113 |
| Dmac2l (GeneID 68055) | -0.6 | enough cells in well | 236 | 53.7 |
| Slc4a9 (GeneID 240215) | – | fewer than 50 cells per well; well left out of calls | 131 | 75.8 |
